Results are given in words; binding and its absence hold for the method and conditions named. Some entries that bind do so weakly or less than the wild type.
B1: anti-FGFR2-IIIb antibody (afucosylated, humanized IgG1 monoclonal antibody), control sample incubated without hydrogen peroxide (antibody, V domains shown)
VH: QVQLVQSGAEVKKPGSSVKVSCKASGYIFTTYNVHWVRQAPGQGLEWIGSIYPDNGDTSYNQNFKGRATITADKSTSTAYMELSSLRSEDTAVYYCARGDFAYWGQGTLVTVSS
VL: DIQMTQSPSSLSASVGDRVTITCKASQGVSNDVAWYQQKPGKAPKLLIYSASYRYTGVPSRFSGSGSGTDFTFTISSLQPEDIATYYCQQHSTTPYTFGQGTKLEIKR
notes: also called αFGFR2b; Sample 1
B2: anti-FGFR2-IIIb antibody incubated with 0.01% hydrogen peroxide overnight at room temperature (force oxidized) (antibody, human IgG1, kappa, V domains shown)
VH: QVQLVQSGAEVKKPGSSVKVSCKASGYIFTTYNVHWVRQAPGQGLEWIGSIYPDNGDTSYNQNFKGRATITADKSTSTAYMELSSLRSEDTAVYYCARGDFAYWGQGTLVTVSS
VL: DIQMTQSPSSLSASVGDRVTITCKASQGVSNDVAWYQQKPGKAPKLLIYSASYRYTGVPSRFSGSGSGTDFTFTISSLQPEDIATYYCQQHSTTPYTFGQGTKLEIKR
notes: Same antibody as m1 after peroxide treatment; also called +0.01% H2O2; 0.01% H2O2
B3: anti-FGFR2-IIIb antibody incubated with 0.1% hydrogen peroxide overnight at room temperature (force oxidized) (antibody, human IgG1, kappa, V domains shown)
VH: QVQLVQSGAEVKKPGSSVKVSCKASGYIFTTYNVHWVRQAPGQGLEWIGSIYPDNGDTSYNQNFKGRATITADKSTSTAYMELSSLRSEDTAVYYCARGDFAYWGQGTLVTVSS
VL: DIQMTQSPSSLSASVGDRVTITCKASQGVSNDVAWYQQKPGKAPKLLIYSASYRYTGVPSRFSGSGSGTDFTFTISSLQPEDIATYYCQQHSTTPYTFGQGTKLEIKR
notes: Same antibody as m1 after peroxide treatment; also called +0.1% H2O2; 0.1% H2O2
B4: anti-FGFR2-IIIb antibody incubated with 1.0% hydrogen peroxide overnight at room temperature (force oxidized) (antibody, human IgG1, kappa, V domains shown)
VH: QVQLVQSGAEVKKPGSSVKVSCKASGYIFTTYNVHWVRQAPGQGLEWIGSIYPDNGDTSYNQNFKGRATITADKSTSTAYMELSSLRSEDTAVYYCARGDFAYWGQGTLVTVSS
VL: DIQMTQSPSSLSASVGDRVTITCKASQGVSNDVAWYQQKPGKAPKLLIYSASYRYTGVPSRFSGSGSGTDFTFTISSLQPEDIATYYCQQHSTTPYTFGQGTKLEIKR
notes: Same antibody as m1 after peroxide treatment; also called +1.0% H2O2; 1.0% H2O2

Molecular target: protein A (UniProt P38507)
Assay: Biacore

Binder | binding
B1 | binds
B2 | binds
B3 | binds
B4 | binds
